Assay [1] concerns the target T1, Tm-2^2-nLUC (tomato) (UniProt Q71BG9).
T1 sequence: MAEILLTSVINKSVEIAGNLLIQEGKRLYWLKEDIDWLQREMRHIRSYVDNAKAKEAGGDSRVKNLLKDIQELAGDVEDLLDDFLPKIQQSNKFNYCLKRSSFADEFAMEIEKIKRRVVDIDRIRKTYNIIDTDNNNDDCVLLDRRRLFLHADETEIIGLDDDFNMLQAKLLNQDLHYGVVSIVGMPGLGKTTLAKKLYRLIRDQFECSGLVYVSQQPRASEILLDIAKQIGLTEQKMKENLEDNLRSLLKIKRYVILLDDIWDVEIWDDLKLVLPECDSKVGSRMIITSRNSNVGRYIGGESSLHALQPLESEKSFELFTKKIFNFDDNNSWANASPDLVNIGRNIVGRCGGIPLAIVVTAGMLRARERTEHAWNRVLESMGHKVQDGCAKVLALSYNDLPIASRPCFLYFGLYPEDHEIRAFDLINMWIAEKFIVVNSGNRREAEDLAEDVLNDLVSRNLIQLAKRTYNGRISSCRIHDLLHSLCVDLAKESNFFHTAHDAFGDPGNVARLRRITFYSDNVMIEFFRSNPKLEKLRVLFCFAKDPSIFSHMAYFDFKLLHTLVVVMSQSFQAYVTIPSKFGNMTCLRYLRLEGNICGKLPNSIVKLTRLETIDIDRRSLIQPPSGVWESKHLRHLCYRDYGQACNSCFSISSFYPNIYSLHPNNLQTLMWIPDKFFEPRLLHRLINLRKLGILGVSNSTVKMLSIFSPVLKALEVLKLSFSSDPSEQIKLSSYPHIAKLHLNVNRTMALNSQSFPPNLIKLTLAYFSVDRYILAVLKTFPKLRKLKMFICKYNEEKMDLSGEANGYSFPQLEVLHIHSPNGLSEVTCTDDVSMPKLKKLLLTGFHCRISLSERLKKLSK
The assay can be described thus: split reporter; firefly luciferase complementation imaging (LCI) in agroinfiltrated N. benthamiana leaves, 48 hpi, 1 mM luciferin, cooled CCD.

The target of assay [2] is T2, BD-Tm-2^2 (full-length Tm-2^2 fused to the LexA DNA binding domain) (tomato) (UniProt Q71BG9).
T2 sequence: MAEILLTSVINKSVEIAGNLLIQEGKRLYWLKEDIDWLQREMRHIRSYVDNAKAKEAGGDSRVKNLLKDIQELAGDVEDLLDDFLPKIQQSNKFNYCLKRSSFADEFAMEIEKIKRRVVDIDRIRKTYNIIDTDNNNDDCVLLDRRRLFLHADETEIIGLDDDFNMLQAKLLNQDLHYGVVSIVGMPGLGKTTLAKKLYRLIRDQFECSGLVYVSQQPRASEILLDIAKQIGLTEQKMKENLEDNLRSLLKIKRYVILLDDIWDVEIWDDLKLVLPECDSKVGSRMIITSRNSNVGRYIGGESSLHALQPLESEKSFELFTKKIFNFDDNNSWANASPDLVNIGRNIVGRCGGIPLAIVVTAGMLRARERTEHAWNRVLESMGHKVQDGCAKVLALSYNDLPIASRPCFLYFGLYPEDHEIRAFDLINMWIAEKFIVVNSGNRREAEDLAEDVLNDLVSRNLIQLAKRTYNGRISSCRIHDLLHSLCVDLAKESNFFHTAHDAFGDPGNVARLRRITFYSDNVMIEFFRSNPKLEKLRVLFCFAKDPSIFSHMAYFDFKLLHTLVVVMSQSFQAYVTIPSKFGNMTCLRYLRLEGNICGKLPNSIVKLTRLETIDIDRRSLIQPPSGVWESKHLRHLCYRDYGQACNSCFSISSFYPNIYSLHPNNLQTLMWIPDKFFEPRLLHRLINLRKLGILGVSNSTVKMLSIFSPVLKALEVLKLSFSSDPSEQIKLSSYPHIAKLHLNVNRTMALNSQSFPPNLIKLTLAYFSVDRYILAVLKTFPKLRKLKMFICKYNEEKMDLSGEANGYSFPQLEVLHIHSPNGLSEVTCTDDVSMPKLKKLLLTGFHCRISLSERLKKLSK
The assay is described as follows: two-hybrid; LexA-based pairwise test; BD bait and B42 AD prey under a galactose-inducible promoter; growth on Leu- medium and blue colour on X-gal medium with galactose/raffinose (not on glucose), 28°C for 4 days.

Assay [3] addresses HA-tagged NbHsp90 (3 x HA-NbHsp90) (Nicotiana benthamiana). The assay is described as follows: co-IP; HA-NbHsp90 co-expressed with Tm-2^2-myc or cLUC-myc in N. benthamiana leaves, 48 hpi; total protein extracts, anti-HA beads, 4°C for 2 h, four washes; blots with anti-myc and anti-HA.

The results in this text go back to article PMC5902563.

No constants are given. Whether binding was seen depends on the method and setting. Binding calls can cover weak binding; strength is not graded here. Tags and fused reporters may be left off the sequences shown. For part of these data: Binding seen in cells or lysates may run through a third protein.

As for cLUC-NbHsp90 (Nicotiana benthamiana), the binding entry in assay [1] was “binds”.

For “AD-NbHsp90 (full-length Nicotiana benthamiana Hsp90 fused to the B42 activation domain)”, the binding result in assay [2] is “binds”.

B1: myc-tagged Tm-2^2 (Tm-2^2-4 x myc) (protein, UniProt Q71BG9 1-861)
chain: MAEILLTSVINKSVEIAGNLLIQEGKRLYWLKEDIDWLQREMRHIRSYVDNAKAKEAGGDSRVKNLLKDIQELAGDVEDLLDDFLPKIQQSNKFNYCLKRSSFADEFAMEIEKIKRRVVDIDRIRKTYNIIDTDNNNDDCVLLDRRRLFLHADETEIIGLDDDFNMLQAKLLNQDLHYGVVSIVGMPGLGKTTLAKKLYRLIRDQFECSGLVYVSQQPRASEILLDIAKQIGLTEQKMKENLEDNLRSLLKIKRYVILLDDIWDVEIWDDLKLVLPECDSKVGSRMIITSRNSNVGRYIGGESSLHALQPLESEKSFELFTKKIFNFDDNNSWANASPDLVNIGRNIVGRCGGIPLAIVVTAGMLRARERTEHAWNRVLESMGHKVQDGCAKVLALSYNDLPIASRPCFLYFGLYPEDHEIRAFDLINMWIAEKFIVVNSGNRREAEDLAEDVLNDLVSRNLIQLAKRTYNGRISSCRIHDLLHSLCVDLAKESNFFHTAHDAFGDPGNVARLRRITFYSDNVMIEFFRSNPKLEKLRVLFCFAKDPSIFSHMAYFDFKLLHTLVVVMSQSFQAYVTIPSKFGNMTCLRYLRLEGNICGKLPNSIVKLTRLETIDIDRRSLIQPPSGVWESKHLRHLCYRDYGQACNSCFSISSFYPNIYSLHPNNLQTLMWIPDKFFEPRLLHRLINLRKLGILGVSNSTVKMLSIFSPVLKALEVLKLSFSSDPSEQIKLSSYPHIAKLHLNVNRTMALNSQSFPPNLIKLTLAYFSVDRYILAVLKTFPKLRKLKMFICKYNEEKMDLSGEANGYSFPQLEVLHIHSPNGLSEVTCTDDVSMPKLKKLLLTGFHCRISLSERLKKLSK
As to B1, the binding result in assay [3] is on record as “binds”.
